Measured values reported in paper PMC9150345.
No constants are given. Whether binding was seen depends on the method and setting. In cells and extracts the contact can be indirect. Some binding calls cover weakened binding; strength is not graded here. Sequences can lack the tags named with a protein.

Chains of the proteins cited; added tags and fusions are not shown.
UniProt P02833: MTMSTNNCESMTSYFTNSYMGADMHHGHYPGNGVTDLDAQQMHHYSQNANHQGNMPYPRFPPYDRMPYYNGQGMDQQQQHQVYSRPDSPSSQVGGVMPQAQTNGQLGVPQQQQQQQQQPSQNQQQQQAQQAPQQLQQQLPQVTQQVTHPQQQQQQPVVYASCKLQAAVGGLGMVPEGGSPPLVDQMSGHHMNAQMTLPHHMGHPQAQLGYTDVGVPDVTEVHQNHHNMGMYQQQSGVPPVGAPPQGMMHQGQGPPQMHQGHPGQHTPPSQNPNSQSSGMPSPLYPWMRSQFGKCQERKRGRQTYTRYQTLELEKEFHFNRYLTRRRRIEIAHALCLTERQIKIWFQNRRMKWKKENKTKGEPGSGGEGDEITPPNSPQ

Target: T1, Drosophila melanogaster TBP (dmTBP), BiFC fusion (Drosophila melanogaster) (UniProt P20227)
T1 sequence: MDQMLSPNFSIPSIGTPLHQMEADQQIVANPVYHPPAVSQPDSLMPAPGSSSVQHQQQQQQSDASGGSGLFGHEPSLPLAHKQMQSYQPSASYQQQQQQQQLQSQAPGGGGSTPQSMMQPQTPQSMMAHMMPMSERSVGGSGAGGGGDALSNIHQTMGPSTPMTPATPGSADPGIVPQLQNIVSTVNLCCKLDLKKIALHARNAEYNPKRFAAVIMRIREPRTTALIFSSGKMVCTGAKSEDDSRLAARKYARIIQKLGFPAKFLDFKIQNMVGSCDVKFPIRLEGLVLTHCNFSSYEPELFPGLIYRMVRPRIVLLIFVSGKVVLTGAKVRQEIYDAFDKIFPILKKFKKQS
Assay: split reporter; preliminary results of BiFC assays with Drosophila melanogaster TBP (data not shown)

Substance: Antennapedia (Antp), fused to the C-terminal fragment of Venus (from UniProt P02833 1-378)
- binding: binds
